Results are given in words; binding and its absence hold for the method and conditions named. Binding seen in cells or lysates may run through a third protein. Some entries that bind do so weakly or less than the wild type. Tags and fused reporters may be left off the sequences shown.
Molecular target: RNF146-myc (UniProt Q9NTX7)
Test: co-IP; 293T cells transfected with Slug-plasmid and/or RNF146-plasmid and FHL3-plasmid; RIPA lysate; magnetic beads (Anti-Myc, Anti-HA, Anti-Flag) at 4°C for 24 h, washed with TBS; Western blot

By UniProt entry, the sequences of proteins in these tests, tags left out.
UniProt Q9NTX7: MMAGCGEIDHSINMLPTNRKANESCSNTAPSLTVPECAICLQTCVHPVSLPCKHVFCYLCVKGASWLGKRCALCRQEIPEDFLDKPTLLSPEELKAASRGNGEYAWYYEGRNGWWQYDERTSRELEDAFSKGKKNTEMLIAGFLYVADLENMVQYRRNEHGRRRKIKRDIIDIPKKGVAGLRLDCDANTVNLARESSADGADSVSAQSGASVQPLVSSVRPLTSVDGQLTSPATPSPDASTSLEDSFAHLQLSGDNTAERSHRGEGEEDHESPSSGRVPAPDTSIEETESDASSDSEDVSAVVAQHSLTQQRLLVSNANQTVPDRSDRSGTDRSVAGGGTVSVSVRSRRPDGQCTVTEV

B1: FHL3-HA (protein, UniProt Q13643 1-280)
chain: MSESFDCAKCNESLYGRKYIQTDSGPYCVPCYDNTFANTCAECQQLIGHDSRELFYEDRHFHEGCFRCCRCQRSLADEPFTCQDSELLCNDCYCSAFSSQCSACGETVMPGSRKLEYGGQTWHEHCFLCSGCEQPLGSRSFVPDKGAHYCVPCYENKFAPRCARCSKTLTQGGVTYRDQPWHRECLVCTGCQTPLAGQQFTSRDEDPYCVACFGELFAPKCSSCKRPIVGLGGGKYVSFEDRHWHHNCFSCARCSTSLVGQGFVPDGDQVLCQGCSQAGP
In the case of B1, the binding is reported as “binds”.

B2: Slug-Flag (protein, UniProt O43623 1-268)
chain: MPRSFLVKKHFNASKKPNYSELDTHTVIISPYLYESYSMPVIPQPEILSSGAYSPITVWTTAAPFHAQLPNGLSPLSGYSSSLGRVSPPPPSDTSSKDHSGSESPISDEEERLQSKLSDPHAIEAEKFQCNLCNKTYSTFSGLAKHKQLHCDAQSRKSFSCKYCDKEYVSLGALKMHIRTHTLPCVCKICGKAFSRPWLLQGHIRTHTGEKPFSCPHCNRAFADRSNLRAHLQTHSDVKKYQCKNCSKTFSRMSLLHKHEESGCCVAH
For B2, the binding was “binds”.

Source: publication PMC8213027
